Laboratory results reported in US5459236A (Ferring AB, priority 1990, dated 1995).
Strings that start with PEPTIDE1 are HELM notation: dots part the residues, brackets hold end groups and non-standard residues.

Assay: general procedure: Boc solid-phase peptide synthesis; 4-methylbenzhydrylamine resin, theoretical loading 0.65 meq/g (Peninsula Laboratories Inc.)
Settings: late stage modification step, 223 nm

Substance	final HPLC purity [%]
PEPTIDE1{[Hmp].F.I.[Hci].N.C.P.[Dab].G.[am]}|PEPTIDE2{[Abu]}$PEPTIDE1,PEPTIDE1,1:R3-6:R3|PEPTIDE1,PEPTIDE2,8:R3-1:R2$$$V2.0	99.5
PEPTIDE1{[Hmp].F.I.[Hgn].N.C.P.[Dab].G.[am]}|PEPTIDE2{A}$PEPTIDE1,PEPTIDE1,1:R3-6:R3|PEPTIDE1,PEPTIDE2,8:R3-1:R2$$$V2.0	99.8
PEPTIDE1{[Hmp].F.I.[Hgn].N.C.P.[Dab].G.[am]}|PEPTIDE2{[Abu]}$PEPTIDE1,PEPTIDE1,1:R3-6:R3|PEPTIDE1,PEPTIDE2,8:R3-1:R2$$$V2.0	99.5

Same assay, conditions: whole synthesis, 223 nm

Substance	final HPLC purity [%]
PEPTIDE1{[Hmp].F.I.[Hci].N.C.P.[Dab].G.[am]}$PEPTIDE1,PEPTIDE1,1:R3-6:R3$$$V2.0	98.5
PEPTIDE1{[Hmp].F.I.[Hgn].N.C.P.[Dab].G.[am]}$PEPTIDE1,PEPTIDE1,1:R3-6:R3$$$V2.0	99.5
PEPTIDE1{[Hmp].Y.I.[Hgn].N.C.P.[Dab].G.[am]}$PEPTIDE1,PEPTIDE1,1:R3-6:R3$$$V2.0	>99
PEPTIDE1{[Hmp].Y.I.[Hgn].N.C.P.[Orn].G.[am]}$PEPTIDE1,PEPTIDE1,1:R3-6:R3$$$V2.0	98.5
